Source: patent US4859664A, “Derivatives of 2,3,4,5,6,7-hexahydro-2,7-methano-1,5-benzoxazonines and -1,4-benzoxazonines, processes for their production and their use as pharmaceuticals” (priority 1986, dated 1989)
Where two headings read alike, the source gives them in different places.

Assay type: in vivo, male NMRI mice
Conditions: for % inhibition action ± SEM with naloxone: with naloxone hydrochloride 20 mg./kg. s.c.
Method: […]. They were given a standard feed and water ad libitum up to the commencement of the experiments.
The test compounds were administered in a volume of 10 ml./kg./body weight per mouse. As carrier, there was used physiological sodium chloride solution or a suspension of 0.5% tragacanth in physiological sodium chloride solution.
The experimental results are given as average values with a mean error of the average value (x±S.E.M.). The ED50 values were calculated according to Litchfield and Wilcoxon (J. Pharmacol. Exp. Ther., 96, 99/1949). The compounds were thereby tested in 4 dosages (p≤0.5).
For the significance calculation, there was used Student's t test (see Angewandte Statistik, pub. Stringer Verlag, Berlin, Heidelberg, 242/1983), as well as the range sum test of Mann and Withney (Ann. Math. stat., 50, 1818/1947).
1.1. In the acetic acid writhing test (see R. Koster et al., Fed. proc., 18, 412/1954), the typical stretching movements referred to as "writhing", were produced by the intraperitoneal administration of a 0.6% acetic acid solution. 30 minutes previously, the substance to be tested was administered subcutaneously (s.c.) or orally ([…].) to the animals. 3 minutes after administration of the acetic acid solution, the total number of stretching movements in a period of time of 10 minutes was ascertained. From the decrease of the stretching reactions due to the action of the test compound in comparison with non-pretreated control groups, there was determined the percentage inhibition action.
1.2. Naloxone-antagonistic action in the writhing test.
20 Minutes before the subcutaneous administration of the test compounds, the animals were given 20 mg./kg. naloxone hydrochloride subcutaneously. The further carrying out of the experiments was as described above.

COc1cccc(C2(O)CCCCC2CN(C)C)c1 (centres unmarked) [tramadol, 2-[(dimethylamino)-methyl]-1-(3-methoxyphenyl)-cyclohexanol, reference compound]
% inhibition action ± SEM with naloxone (10 mg/kg s.c.): 30.4 ± 9.9%
% inhibition action ± SEM without naloxone (10 mg/kg s.c.): 69.4 ± 5.5%
% inhibition action ± SEM with naloxone (20 mg/kg s.c.): 60.5 ± 2.9%
% inhibition action ± SEM without naloxone (20 mg/kg s.c.): 91.2 ± 2.0%
significance of difference of inhibitory action with and without naloxone (after naloxone pretreatment, Student's t test): statistically significantly lower (t=8.41, p≤0.01)
